Positions count from the first letter of the chain named. Results are given in words; binding and its absence hold for the method and conditions named. Binding seen in cells or lysates may run through a third protein. Some binding calls cover weakened binding; strength is not graded here. Where a sequence is shown, tags or fusion partners need not be part of it.

The target of experiment [1] is T1, 293XL-hTLR9-YFP-flag Y980F (human) (UniProt Q9NR96).
T1 sequence: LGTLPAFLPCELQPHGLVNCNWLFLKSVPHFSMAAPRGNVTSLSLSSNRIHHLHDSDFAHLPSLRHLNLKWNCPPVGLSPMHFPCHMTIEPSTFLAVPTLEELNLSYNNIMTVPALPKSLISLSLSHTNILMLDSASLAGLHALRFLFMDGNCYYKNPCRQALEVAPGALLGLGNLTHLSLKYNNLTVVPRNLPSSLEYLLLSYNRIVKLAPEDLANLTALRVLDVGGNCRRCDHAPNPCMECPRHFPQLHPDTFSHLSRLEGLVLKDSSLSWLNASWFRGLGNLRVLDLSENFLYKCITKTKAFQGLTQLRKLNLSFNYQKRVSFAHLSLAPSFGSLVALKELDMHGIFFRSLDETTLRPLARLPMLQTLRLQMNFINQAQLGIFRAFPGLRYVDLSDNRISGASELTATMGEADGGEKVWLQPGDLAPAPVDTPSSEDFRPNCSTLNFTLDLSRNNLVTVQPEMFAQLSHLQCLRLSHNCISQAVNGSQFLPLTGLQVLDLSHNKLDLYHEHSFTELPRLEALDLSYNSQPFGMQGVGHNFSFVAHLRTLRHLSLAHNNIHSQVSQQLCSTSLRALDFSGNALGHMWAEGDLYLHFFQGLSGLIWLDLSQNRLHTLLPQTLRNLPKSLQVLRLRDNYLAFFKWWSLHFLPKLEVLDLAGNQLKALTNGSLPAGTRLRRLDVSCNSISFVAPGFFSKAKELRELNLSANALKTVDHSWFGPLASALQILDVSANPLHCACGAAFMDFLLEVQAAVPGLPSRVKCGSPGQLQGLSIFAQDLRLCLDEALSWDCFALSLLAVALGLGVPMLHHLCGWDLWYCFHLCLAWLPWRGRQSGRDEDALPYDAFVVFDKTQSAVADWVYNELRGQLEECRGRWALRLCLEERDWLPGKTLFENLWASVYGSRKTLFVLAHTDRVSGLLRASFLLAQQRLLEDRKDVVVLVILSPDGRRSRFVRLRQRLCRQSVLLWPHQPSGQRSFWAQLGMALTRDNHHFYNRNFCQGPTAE
In words: co-IP; 293XL-hTLR9-YFP-flag Wt, Y870F, Y980F cells treated with CpG ODN 15 min (Fig. 6D) or 30 min (Fig. 6E); immunoprecipitated with anti-flag for TLR9, immunoblot anti-Syk, anti-EGFR. Background: A western blot detects proteins with antibodies after separation by electrophoresis.

Experiment [2] deals with T2, 293XL-hTLR9-YFP-flag Y870F (human) (UniProt Q9NR96).
T2 sequence: T1 sequence with Y845F, F955Y
The experiment is described as above.

Turning to “EGFR (from UniProt P00533 25-1210) (receptor)”, the binding result in experiment [1] and in experiment [2] was “binds” in each case.
